Measured data: PubChem BioAssay AID1259298 (Sanger Institute, 2017)
This is an unselected part of 794 reagents tested. 20 of them (2.5%) count as active. 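Calls rest only on the knock-down-alone score; drug synergy scores played no part in them.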 A number with no mark means an inactive call. No viability above 1 is reported: the scale is capped. Further read-outs or replicates are left out here. Not stated in the record: the amount of reagent, the time to read-out.

Test: 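Kinases whose loss strengthens killing by BYL719, cetuximab or trametinib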 (primary screen)
Cell system: HT55 human colorectal cancer cell line
Reagents: siRNA pool against human genes
Treatment: anchor drug BYL719 1 µM, cetuximab 5 µg/ml or trametinib 10 nM, or DMSO vehicle alone
Measurement: 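Replicate-averaged viability versus wells of non-targeting pool; knock-down-only robust z-score; per-drug synergy score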
Scale: robust z-score, knock-down alone: higher = more cells remaining; low means essential gene; viability vs control pool, no drug: higher = more viable cells
Units: viability vs control pool, no drug in fraction
Active means: 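a gene counts as essential if its knock-down-alone robust z-score falls under -3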
Calls: active = essential (knock-down alone); inactive = no change alone

PAK5 (GeneID 57144)
- robust z-score, knock-down alone: 0.58
- viability vs control pool, no drug: 1

TRPM6 (GeneID 140803)
- robust z-score, knock-down alone: 0.58
- viability vs control pool, no drug: 1

BRD4 (GeneID 23476)
- robust z-score, knock-down alone: -0.812
- viability vs control pool, no drug: 0.891

GRK6 (GeneID 2870)
- robust z-score, knock-down alone: 0.58
- viability vs control pool, no drug: 1

CSNK1G1 (GeneID 53944)
- robust z-score, knock-down alone: -0.55
- viability vs control pool, no drug: 0.912

ZC3H11A (GeneID 9877)
- robust z-score, knock-down alone: 0.0821
- viability vs control pool, no drug: 0.961

BTK (GeneID 695)
- robust z-score, knock-down alone: -0.889
- viability vs control pool, no drug: 0.885

MAPK13 (GeneID 5603)
- robust z-score, knock-down alone: 0.58
- viability vs control pool, no drug: 1

CRIM1 (GeneID 51232)
- robust z-score, knock-down alone: -0.0781
- viability vs control pool, no drug: 0.949

FER (GeneID 2241)
- robust z-score, knock-down alone: 0.58
- viability vs control pool, no drug: 1

PLK1 (GeneID 5347)
- robust z-score, knock-down alone: -7.07 (active)
- viability vs control pool, no drug: 0.402

KIT (GeneID 3815)
- robust z-score, knock-down alone: 0.58
- viability vs control pool, no drug: 1

CDK5R2 (GeneID 8941)
- robust z-score, knock-down alone: 0.58
- viability vs control pool, no drug: 1

NEK5 (GeneID 341676)
- robust z-score, knock-down alone: 0.58
- viability vs control pool, no drug: 1

CLK4 (GeneID 57396)
- robust z-score, knock-down alone: 0.58
- viability vs control pool, no drug: 1

DGKQ (GeneID 1609)
- robust z-score, knock-down alone: -0.225
- viability vs control pool, no drug: 0.937

GRK5 (GeneID 2869)
- robust z-score, knock-down alone: 0.58
- viability vs control pool, no drug: 1

MAP3K5 (GeneID 4217)
- robust z-score, knock-down alone: 0.164
- viability vs control pool, no drug: 0.967

CDK5R1 (GeneID 8851)
- robust z-score, knock-down alone: -0.309
- viability vs control pool, no drug: 0.931

Quoted from the entries so far for reference:
CDK5R2 (GeneID 8941)
- robust z-score, knock-down alone: 0.58
- viability vs control pool, no drug: 1

NEK5 (GeneID 341676)
- robust z-score, knock-down alone: 0.58
- viability vs control pool, no drug: 1
